## Assay results

Data taken from PubChem BioAssay AID2668, deposited by NCATS (2010).

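In MEF cells dosed for 24 hours, mTORC1 pathway output is scored by cytometry as the share of cells staining for phosphorylated ribosomal protein S6. Compounds were run as a concentration series from about 0.0024 to 38 µM. The number is a fitted potency (AC50) for inhibition of rpS6 phosphorylation; a lower value means a more potent compound. Calls come from curve class and an activity score: scores 40–100 are active, 1–39 inconclusive, and 0 inactive.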

Values are in µM. Every entry below has the call inconclusive. Only part of the assay is shown, chiefly results filed as inconclusive. Potencies fitted to partial, single-point or poorly fitting curves are rough. Some entries filed as inconclusive have a full curve. Activity scores are not listed here.

- CC(C)C[C@H]1C(=O)N2CCC[C@H]2[C@]2(O)O[C@](NC(=O)[C@@H]3C=C4c5cccc6[nH]c(Br)c(c56)C[C@H]4N(C)C3)(C(C)C)C(=O)N12 | fitted potency 18.49 µM (falling, single point)
- CCCCC/C=C\CC(O)/C=C/c1cccc(CC(O)CCCCO)n1 (centres undefined) | fitted potency 26.12 µM (falling, single point)
- CCCn1c(C)c(C(=O)c2ccc3ccccc3c2)c2ccccc21 | fitted potency 14.69 µM (falling, single point)
- O=C(CCCCCN1CCN(c2ccccc2-c2ccccc2)CC1)NC1CCCc2ccccc21 (centres undefined) | fitted potency 23.28 µM (falling, single point)
- Oc1cc2c(c(Cl)c1O)CCNCC2c1ccccc1 (centres undefined) | fitted potency 26.12 µM (falling, single point)
- CCn1cnc2c(Nc3cccc(Cl)c3)nc(N[C@@H]3CCCC[C@@H]3N)nc21 | fitted potency 16.48 µM (falling, single point)
- CN1CCc2ccccc2Cc2[nH]c3ccccc3c2CC1 | fitted potency 26.12 µM (falling, single point)
- OCCN1CCN(CCCN2c3ccccc3Sc3ccc(C(F)(F)F)cc32)CC1 | fitted potency 16.48 µM (falling, single point)
- NC(N)=N/N=C/c1c(Cl)cccc1Cl | fitted potency 2.075 µM (falling, single point)
- CN(C)CCC=C1c2ccccc2C=Cc2ccccc21 | fitted potency 16.48 µM (falling, single point)
- CCCCCCCCc1ccc(-c2ccc(C(=O)O)cc2)cc1 | fitted potency 23.28 µM (falling, single point)
- C=CCc1cccc(C=NNC(=O)CN2CCN(Cc3ccccc3)CC2)c1O | fitted potency 4.645 µM (falling, full curve)
- Fc1ccc([C@@H]2CCNC[C@H]2COc2ccc3c(c2)OCO3)cc1 | fitted potency 26.12 µM (falling, single point)
- NS(=O)(=O)C#Cc1ccccc1 | fitted potency 23.28 µM (falling, single point)
- COc1ccccc1N1CCN(CC(O)COc2cccc3ccccc23)CC1 (centres undefined) | fitted potency 26.12 µM (falling, single point)
- CCN(CC)CCCCCCCCOC(=O)c1cc(OC)c(OC)c(OC)c1 | fitted potency 23.28 µM (falling, single point)
- Cc1ccc(S(=O)(=O)N[C@@H](Cc2ccccc2)C(=O)CCl)cc1 | fitted potency 16.48 µM (falling, single point)
- Cc1c2ccncc2c(C)c2c1[nH]c1ccccc12 | fitted potency 13.09 µM (falling, partial curve)
- CCCCCCCC/C=C\CCCCCCCC(=O)NCc1ccc(O)c(OC)c1 | fitted potency 13.09 µM (falling, single point)

Once more, the final 2:

Compound	fitted potency (µM)	remark
Cc1c2ccncc2c(C)c2c1[nH]c1ccccc12	13.09	falling, partial curve
CCCCCCCC/C=C\CCCCCCCC(=O)NCc1ccc(O)c(OC)c1	13.09	falling, single point